Positions count from the first letter of the chain named. Results are given in words; binding and its absence hold for the method and conditions named.

By UniProt entry, the sequences of proteins in these tests, tags left out. Residues count along the entry.
UniProt O00206, residues 24-631: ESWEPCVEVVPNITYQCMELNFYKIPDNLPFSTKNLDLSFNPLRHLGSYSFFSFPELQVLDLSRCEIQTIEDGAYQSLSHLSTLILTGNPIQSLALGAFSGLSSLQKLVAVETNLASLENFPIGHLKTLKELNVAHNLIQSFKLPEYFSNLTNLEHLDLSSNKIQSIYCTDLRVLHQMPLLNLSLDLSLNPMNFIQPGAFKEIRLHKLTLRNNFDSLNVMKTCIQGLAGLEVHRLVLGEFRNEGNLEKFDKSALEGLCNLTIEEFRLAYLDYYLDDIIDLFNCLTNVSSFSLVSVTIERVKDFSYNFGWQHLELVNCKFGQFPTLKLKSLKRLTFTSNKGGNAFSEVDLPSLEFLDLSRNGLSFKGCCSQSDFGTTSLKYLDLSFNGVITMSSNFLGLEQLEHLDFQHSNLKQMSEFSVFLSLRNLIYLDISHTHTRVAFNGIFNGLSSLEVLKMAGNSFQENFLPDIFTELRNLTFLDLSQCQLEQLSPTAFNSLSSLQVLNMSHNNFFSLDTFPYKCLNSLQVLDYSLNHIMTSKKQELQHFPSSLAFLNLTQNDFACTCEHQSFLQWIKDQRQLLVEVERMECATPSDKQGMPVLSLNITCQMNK

Here are results for 3 molecules from patent US20120034232A1 (INNATE PHARMA, published 2012).

The target in the assay is His-tagged rec TLR4 protein (R&D systems, #3146-TR-050) (UniProt O00206). Nature of the assay: condition: ratio above 10 for DO obtained in TLR3 ELISA to DO obtained in TLR4 ELISA; ELISA, His-tagged rec TLR4 on Ni-NTA plates, hybridoma supernatant. (An ELISA detects its analyte on a solid surface through an enzyme-linked reagent.)

B1: anti-TLR3 monoclonal antibody 29H3 (antibody, V domains shown)
VH: DVQLQESGPDLVKPSQSLSLTCTVTGYSITSGYSWHWIRQFLGNKLEWMGYIHYSGITNYNPSLRSRISFTRDTSKNQFFLQLNSVTTEDTATYYCARDGYYGMDYWGQGTSVTVS
VL: DIVMTQSQKFMSTSVGDRVSITCKASQNVRTSVAWYQQKPGQSPKALIYLASNRHTGVPDRFTGSGSGTDFTLTVSNIQSEDLADYFCLQHWNYPYTFGGGTKLEIK
notes: also called 29H3.7; CNCM I-4187
As for B1, the binding entry is reported as “no binding”.

B2: anti-TLR3 monoclonal antibody 23C8 (antibody, V domains shown)
VH: EVQLQQSGPELVKPGASVKISCKASGYSFTGYFMHWVKQSHVKSLEWIGRINPYNGATSYNQNFKDKASLTVDKSSSTSYMELHSLTSEDSAVYYCVRDDGGNYPFDYWGQGTTLTVS
VL: DIQMTQSPASLSASVGETVTITCRASENIYSYLAWYQQKQGKSPQLLVYYAKTLAEGVPSRFSGSGTGTQFSLKINSLQPEDFGSYYCQHHYGTPYTFGGGTKLEIK
As for B2, the binding result was “no binding”.

B3: anti-TLR3 monoclonal antibody 28F11 (antibody, V domains shown)
VH: EVQLQQSGPELVKPGASVKISCKASGYSFTGYYIHWVKQSHVKSLEWIGRINPYYGATSYNQNFKDKANLTVDKSSSTAYMELHSLTSDDSAVYYCARSTKLGYLDYWGQGTTLTVS
VL: B2 VL with Y32N, V48I, Y50N, T67S, F71Y, S72F, Y96F
Consider B3, for which the binding entry is recorded as “no binding”.
